Data as given in PubChem BioAssay AID504764 (Drosophila RNAi Screening Center, 2011).
The deposit covers about 22,000 reagents; this is an unselected part of those that have a named target and a result. In the full data, 403 (1.9%) were called active. 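Unnormalised raw counts per well; ratio z-scores behind the hit calls and whether each hit raises or lowers signal are not deposited.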 A plus sign joins genes that one reagent is predicted to hit. The record does not give: the amount of reagent.

Screen: 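Knock-downs that raise or lower a Notch target reporter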 (primary screen)
System: Drosophila Kc167 cells
Reagent: long dsRNA against Drosophila genes
Timing: about 5 days (4 days dsRNA, then 24 h after transfection)
Conditions: transfection of constitutively active membrane-tethered Notch lacking the extracellular domain, read 24 h later
Measured: 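Light from a Notch-responsive E(spl)m3 luciferase reporter under active Notch, with control-promoter and no-Notch reporter wells to normalise; raw counts from paired wells a and b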
Reading the numbers: induced reporter light, run 1, well a and induced reporter light, run 1, well b: higher = more light from the Notch target reporter with active Notch; control promoter light, run 1, well a and control promoter light, run 1, well b: higher = more light from the viral control promoter (cell number, transfection, viability); uninduced reporter light, run 1, well a: higher = more light from the Notch target reporter without active Notch
Active means: 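Hit if the duplicate-averaged log2 ratio of induced to control-promoter light gives a plate-wise z beyond ±2, or induced to uninduced beyond ±1.8; weak-control or discordant-duplicate wells dropped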
Meaning of the calls: active = modifier hit (raised or lowered Notch signal); inactive = not a hit

target gene,dsRNA,"induced reporter light, run 1, well a","induced reporter light, run 1, well b","control promoter light, run 1, well a","control promoter light, run 1, well b","uninduced reporter light, run 1, well a",outcome
CG1632,DRSC17558,87110,74525,74045,71685,4990,inactive
CG1632,DRSC18110,1.73e5,1.28e5,2.42e5,3.10e5,12010,inactive
Fgop2 (Fibroblast growth factor receptor 1 oncogene partner 2),DRSC02016,86250,92735,98105,1.07e5,8955,inactive
bchs (blue cheese),DRSC03126,1.76e5,1.31e5,1.69e5,1.91e5,10030,inactive
fon (fondue),DRSC02507,1.62e5,1.65e5,1.46e5,1.76e5,15670,inactive
Sac1 (Sac1 phosphatase),DRSC08622,81460,98865,1.24e5,1.76e5,7105,inactive
CG12824,DRSC06173,2.14e5,2.07e5,2.41e5,2.65e5,20335,inactive
Send2 (Spermathecal endopeptidase 2),DRSC01906,1.29e5,1.54e5,1.22e5,1.34e5,10345,inactive
DIP2 (DISCO Interacting Protein 2),DRSC08582,46705,54095,66225,76110,3240,inactive
CG12985,DRSC19505,29425,20385,20970,19805,2860,inactive
pasi1 (pasiflora 1),DRSC16299,1.83e5,1.81e5,1.75e5,1.69e5,11810,inactive
pasi1 (pasiflora 1),DRSC22385,,,,,,active
CG5376,DRSC15782,1.76e5,1.58e5,1.53e5,1.71e5,13865,inactive
vari (varicose),DRSC03202,45590,36150,33075,30165,1380,inactive
par-1,DRSC05792,75055,86560,1.36e5,1.24e5,7640,inactive
par-1,DRSC06098,36420,32555,35035,34880,3140,inactive
par-1,DRSC06616,1.47e5,1.31e5,2.76e5,2.80e5,12090,inactive
par-1,DRSC07660,22920,19635,16590,25660,2485,inactive
par-1,DRSC07661,1.41e5,99000,1.48e5,1.22e5,10085,inactive
AsnRS (Asparaginyl-tRNA synthetase),DRSC01990,1.72e5,1.84e5,1.29e5,1.45e5,13925,inactive
jumu (jumeau),DRSC16651,1.13e5,90550,73895,53400,5545,inactive
Past1 (Putative Achaete Scute Target 1),DRSC16784,58970,83295,78345,52045,5715,inactive
Acbp5 (Acyl-CoA binding protein 5),DRSC10548,1.65e5,1.32e5,1.44e5,1.22e5,7615,inactive
Tie (Tie-like receptor tyrosine kinase),DRSC08104,1.38e5,1.21e5,85870,87360,13585,inactive
Tie (Tie-like receptor tyrosine kinase),DRSC08702,1.72e5,1.22e5,1.16e5,83945,7838,active
Tsr1 (Tsr1 ribosome assembly factor),DRSC11821,96750,88250,65715,56515,6370,inactive
CG9691,DRSC18441,1.31e5,1.22e5,2.46e5,2.63e5,10355,inactive
bsf (bicoid stability factor),DRSC02035,2.24e5,2.52e5,2.01e5,2.54e5,21765,inactive
CG11342,DRSC08175,2.52e5,3.03e5,3.06e5,3.38e5,15418,inactive
CG11889 + CG11891,DRSC14426,1.44e5,1.46e5,1.74e5,1.83e5,12235,inactive
CG11889 + CG11891,DRSC14427,1.19e5,1.27e5,1.75e5,1.69e5,11480,inactive
chb (chromosome bows),DRSC11469,1.86e5,1.85e5,2.68e5,2.31e5,15560,inactive
CG9646,DRSC07342,77015,1.08e5,1.21e5,1.30e5,5190,inactive
Cdc23 (Cell division cycle 23),DRSC02708,2.36e5,1.79e5,1.97e5,2.08e5,16080,inactive
CG14221,DRSC19578,78420,84470,1.30e5,1.22e5,9015,inactive
pelo (pelota),DRSC03588,2.21e5,2.18e5,2.30e5,2.01e5,17470,inactive
CG30419,DRSC04208,1.89e5,1.68e5,2.20e5,2.04e5,15765,inactive
CG30419,DRSC04209,1.72e5,1.26e5,1.30e5,1.27e5,9635,inactive
CG30419,DRSC22519,,,,,,inactive
Nep5 (Neprilysin 5),DRSC16004,1.90e5,1.88e5,2.29e5,2.66e5,13820,inactive
galla-1,DRSC05987,1.51e5,1.62e5,2.79e5,2.71e5,7370,inactive
CG6337,DRSC06977,99080,1.09e5,1.43e5,1.34e5,10500,inactive
Zyx (Zyxin),DRSC17186,56710,75955,89845,91270,6140,inactive
CG32568,DRSC19913,1.08e5,85970,98005,90910,12055,inactive
eyg (eyegone),DRSC11344,8860,7595,8365,6550,3430,inactive
SLO2 (slowpoke 2),DRSC06212,8845,7745,10385,9910,1540,inactive
SLO2 (slowpoke 2),DRSC06214,2.30e5,1.91e5,2.02e5,2.19e5,17180,inactive
SLO2 (slowpoke 2),DRSC06216,1.82e5,1.56e5,1.82e5,1.62e5,14270,inactive
SLO2 (slowpoke 2),DRSC06218,2.00e5,2.02e5,2.63e5,2.32e5,19990,inactive
SLO2 (slowpoke 2),DRSC06219,11700,13110,16742,15980,3540,inactive

6 entries already listed, arranged by “induced reporter light, run 1, well b”, ascending.
target gene,dsRNA,"induced reporter light, run 1, well a","induced reporter light, run 1, well b","control promoter light, run 1, well a","control promoter light, run 1, well b","uninduced reporter light, run 1, well a",outcome
CG12985,DRSC19505,29425,20385,20970,19805,2860,inactive
DIP2 (DISCO Interacting Protein 2),DRSC08582,46705,54095,66225,76110,3240,inactive
Sac1 (Sac1 phosphatase),DRSC08622,81460,98865,1.24e5,1.76e5,7105,inactive
Send2 (Spermathecal endopeptidase 2),DRSC01906,1.29e5,1.54e5,1.22e5,1.34e5,10345,inactive
pasi1 (pasiflora 1),DRSC16299,1.83e5,1.81e5,1.75e5,1.69e5,11810,inactive
CG12824,DRSC06173,2.14e5,2.07e5,2.41e5,2.65e5,20335,inactive
